Test results as given in patent publication US20250052751A1, “COMPOSITIONS AND METHODS FOR DIAGNOSING AUTOIMMUNE AQUAPORINOPATHY” (The Regents of the University of California, priority 2023, published 2025).
Results are given in words; binding and its absence hold for the method and conditions named. Some results given as binding are weak or reduced against the parent protein; the word gives no strength.

Amino acid sequences for entries named in this document (tags omitted). A change or cut given only in a name is not applied to a line headed by its entry.
UniProt P14434: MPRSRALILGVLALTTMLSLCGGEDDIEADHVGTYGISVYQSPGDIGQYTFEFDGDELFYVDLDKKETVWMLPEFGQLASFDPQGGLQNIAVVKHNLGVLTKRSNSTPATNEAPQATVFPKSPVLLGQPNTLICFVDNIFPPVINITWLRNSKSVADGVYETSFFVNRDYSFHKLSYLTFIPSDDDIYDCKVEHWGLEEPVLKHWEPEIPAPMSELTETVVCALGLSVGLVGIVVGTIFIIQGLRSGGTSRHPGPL

How the values were obtained:
[1] = biological target: MHC class II I-A^b molecules purified by affinity chromatography (mouse) (UniProt P14434); test: competitive binding assay, purified I-A^b, radiolabeled competitor peptide
[2] = biological target: MHC class II I-A^b molecules purified by affinity chromatography (mouse) (UniProt P14434); test: competitive binding assay, purified I-A^b
[3] = biological target: MHC class II I-A^b molecules purified by affinity chromatography (mouse) (UniProt P14434); test: peptide binding to purified MHC II molecules, biochemical

Measured: binding

LYLVTPPSVVGGLGVT [AQP4 p133-149]
binds: all assays above
